Our source for the binding values is paper PMC8161014.

The chains are these.
B1: endogenous GART (glycinamide ribonucleotide transformylase) (protein, UniProt P22102 1-1010)
chain: MAARVLIIGSGGREHTLAWKLAQSHHVKQVLVAPGNAGTACSEKISNTAISISDHTALAQFCKEKKIEFVVVGPEAPLAAGIVGNLRSAGVQCFGPTAEAAQLESSKRFAKEFMDRHGIPTAQWKAFTKPEEACSFILSADFPALVVKASGLAAGKGVIVAKSKEEACKAVQEIMQEKAFGAAGETIVIEELLDGEEVSCLCFTDGKTVAPMPPAQDHKRLLEGDGGPNTGGMGAYCPAPQVSNDLLLKIKDTVLQRTVDGMQQEGTPYTGILYAGIMLTKNGPKVLEFNCRFGDPECQVILPLLKSDLYEVIQSTLDGLLCTSLPVWLENHTALTVVMASKGYPGDYTKGVEITGFPEAQALGLEVFHAGTALKNGKVVTHGGRVLAVTAIRENLISALEEAKKGLAAIKFEGAIYRKDVGFRAIAFLQQPRSLTYKESGVDIAAGNMLVKKIQPLAKATSRSGCKVDLGGFAGLFDLKAAGFKDPLLASGTDGVGTKLKIAQLCNKHDTIGQDLVAMCVNDILAQGAEPLFFLDYFSCGKLDLSVTEAVVAGIAKACGKAGCALLGGETAEMPDMYPPGEYDLAGFAVGAMERDQKLPHLERITEGDVVVGIASSGLHSNGFSLVRKIVAKSSLQYSSPAPDGCGDQTLGDLLLTPTRIYSHSLLPVLRSGHVKAFAHITGGGLLENIPRVLPEKLGVDLDAQTWRIPRVFSWLQQEGHLSEEEMARTFNCGVGAVLVVSKEQTEQILRDIQQHKEEAWVIGSVVARAEGSPRVKVKNLIESMQINGSVLKNGSLTNHFSFEKKKARVAVLISGTGSNLQALIDSTREPNSSAQIDIVISNKAAVAGLDKAERAGIPTRVINHKLYKNRVEFDSAIDLVLEEFSIDIVCLAGFMRILSGPFVQKWNGKMLNIHPSLLPSFKGSNAHEQALETGVTVTGCTVHFVAEDVDAGQIILQEAVPVKRGDTVATLSERVKLAEHKIFPAALQLVASGTVQLGENGKICWVKEE
B2: endogenous ADAR (adenosine deaminase acting on RNA) (protein, UniProt P55265 1-1226)
chain: MNPRQGYSLSGYYTHPFQGYEHRQLRYQQPGPGSSPSSFLLKQIEFLKGQLPEAPVIGKQTPSLPPSLPGLRPRFPVLLASSTRGRQVDIRGVPRGVHLRSQGLQRGFQHPSPRGRSLPQRGVDCLSSHFQELSIYQDQEQRILKFLEELGEGKATTAHDLSGKLGTPKKEINRVLYSLAKKGKLQKEAGTPPLWKIAVSTQAWNQHSGVVRPDGHSQGAPNSDPSLEPEDRNSTSVSEDLLEPFIAVSAQAWNQHSGVVRPDSHSQGSPNSDPGLEPEDSNSTSALEDPLEFLDMAEIKEKICDYLFNVSDSSALNLAKNIGLTKARDINAVLIDMERQGDVYRQGTTPPIWHLTDKKRERMQIKRNTNSVPETAPAAIPETKRNAEFLTCNIPTSNASNNMVTTEKVENGQEPVIKLENRQEARPEPARLKPPVHYNGPSKAGYVDFENGQWATDDIPDDLNSIRAAPGEFRAIMEMPSFYSHGLPRCSPYKKLTECQLKNPISGLLEYAQFASQTCEFNMIEQSGPPHEPRFKFQVVINGREFPPAEAGSKKVAKQDAAMKAMTILLEEAKAKDSGKSEESSHYSTEKESEKTAESQTPTPSATSFFSGKSPVTTLLECMHKLGNSCEFRLLSKEGPAHEPKFQYCVAVGAQTFPSVSAPSKKVAKQMAAEEAMKALHGEATNSMASDNQPEGMISESLDNLESMMPNKVRKIGELVRYLNTNPVGGLLEYARSHGFAAEFKLVDQSGPPHEPKFVYQAKVGGRWFPAVCAHSKKQGKQEAADAALRVLIGENEKAERMGFTEVTPVTGASLRRTMLLLSRSPEAQPKTLPLTGSTFHDQIAMLSHRCFNTLTNSFQPSLLGRKILAAIIMKKDSEDMGVVVSLGTGNRCVKGDSLSLKGETVNDCHAEIISRRGFIRFLYSELMKYNSQTAKDSIFEPAKGGEKLQIKKTVSFHLYISTAPCGDGALFDKSCSDRAMESTESRHYPVFENPKQGKLRTKVENGEGTIPVESSDIVPTWDGIRLGERLRTMSCSDKILRWNVLGLQGALLTHFLQPIYLKSVTLGYLFSQGHLTRAICCRVTRDGSAFEDGLRHPFIVNHPKVGRVSIYDSKRQSGKTKETSVNWCLADGYDLEILDGTRGTVDGPRNELSRVSKKNIFLLFKKLCSFRYRRDLLRLSYGEAKKAARDYETAKNYFKKGLKDMGYGNWISKPQEEKNFYLCPV
B3: endogenous MOV10 (protein, UniProt Q9HCE1 1-1003)
chain: MPSKFSCRQLREAGQCFESFLVVRGLDMETDRERLRTIYNRDFKISFGTPAPGFSSMLYGMKIANLAYVTKTRVRFFRLDRWADVRFPEKRRMKLGSDISKHHKSLLAKIFYDRAEYLHGKHGVDVEVQGPHEARDGQLLIRLDLNRKEVLTLRLRNGGTQSVTLTHLFPLCRTPQFAFYNEDQELPCPLGPGECYELHVHCKTSFVGYFPATVLWELLGPGESGSEGAGTFYIARFLAAVAHSPLAAQLKPMTPFKRTRITGNPVVTNRIEEGERPDRAKGYDLELSMALGTYYPPPRLRQLLPMLLQGTSIFTAPKEIAEIKAQLETALKWRNYEVKLRLLLHLEELQMEHDIRHYDLESVPMTWDPVDQNPRLLTLEVPGVTESRPSVLRGDHLFALLSSETHQEDPITYKGFVHKVELDRVKLSFSMSLLSRFVDGLTFKVNFTFNRQPLRVQHRALELTGRWLLWPMLFPVAPRDVPLLPSDVKLKLYDRSLESNPEQLQAMRHIVTGTTRPAPYIIFGPPGTGKTVTLVEAIKQVVKHLPKAHILACAPSNSGADLLCQRLRVHLPSSIYRLLAPSRDIRMVPEDIKPCCNWDAKKGEYVFPAKKKLQEYRVLITTLITAGRLVSAQFPIDHFTHIFIDEAGHCMEPESLVAIAGLMEVKETGDPGGQLVLAGDPRQLGPVLRSPLTQKHGLGYSLLERLLTYNSLYKKGPDGYDPQFITKLLRNYRSHPTILDIPNQLYYEGELQACADVVDRERFCRWAGLPRQGFPIIFHGVMGKDEREGNSPSFFNPEEAATVTSYLKLLLAPSSKKGKARLSPRSVGVISPYRKQVEKIRYCITKLDRELRGLDDIKDLKVGSVEEFQGQERSVILISTVRSSQSFVQLDLDFNLGFLKNPKRFNVAVTRAKALLIIVGNPLLLGHDPDWKVFLEFCKENGGYTGCPFPAKLDLQQGQNLLQGLSKLSPSTSGPHSHDYLPQEREGEGGLSLQVEPEWRNEL

These are yes or no findings as the source states them, for the method shown. Binding seen in cells or lysates may run through a third protein. Here binding means that the protein was enriched with, or labelled near, the bait; the list need not be complete.

The target of this test is StrepII-FLAG-tagged DCAF12 (WT) (human) (UniProt Q5T6F0). The experiment in a line: affinity purification with mass spectrometry; StrepII-FLAG-DCAF12 and HA-CUL4A co-expressed in HEK293T; Strep-TactinXT affinity purification followed by anti-HA immunoprecipitation; eluates of both steps analysed by LC-MS/MS; SCF^FBXL6 as control.
For “X-linked inhibitor of apoptosis protein (XIAP) (from UniProt P98170 1-497)”, the binding entry is “binds”.
The same measure for “hemagglutinin (HA)-tagged CUL4A (from UniProt Q13619 1-759)”: “binds”; for B1: “binds”.
As to B2, the binding result is given as “binds”.
On to B3, for which the binding result was “binds”.
